From US12097199B2, “Administration of SUMO-activating enzyme inhibitor and anti-CD20 antibodies” (Takeda Pharmaceutical Company Limited, priority 2018, dated 2024)
Some entries share one result that the patent states for a list of compounds.

Experiments:
[1] = test system: PHTX-166L human patient-derived primary B-cell lymphoma xenograft; assay: Study 6: PHTX-166L primary xenograft model, in vivo tumor efficacy; parameters: species or system mice; details: single-agent groups (I-263a 5.0 mg/kg; rituximab 5.0 mg/kg)
Description: Small tumor pieces measuring approximately 2 mm×2 mm were implanted subcutaneousy on the right flank via trocar injection.
Tumors were measured twice weekly using vernier calipers. Tumor volumes were calculated using standard procedures V=W^2×L/2, where V=volume, W=width, and L=length for the tumor xenograft. […] Tumor size and body weight were measured twice a week for the duration of the study. Mice were euthanized when the average tumor volume of a treatment or control group reached approximately 1000 mm^3 or when an individual tumor exceeded the humane end-point for size.
These values were compared across treatment groups to assess whether the differences in the trends over time were statistically significant. […]
(§1) The predicted differences in the log tumor values (Yijk−Yi0k, which can be interpreted as log10 (fold change from day 0)) were taken from the above models to calculate mean AUC values for each treatment group. A dAUC value was then calculated as: […]
(§2) For synergy analyses, the observed differences in the log tumor values were used to calculate AUC values for each animal. […] The AUC for the control, or vehicle, group was calculated using the predicted values from the pairwise models described above. […]

[2] = test system: PHTX-166L human patient-derived B-cell lymphoma primary xenograft; assay: Study 5: PHTX-166L primary xenograft model, in vivo tumor efficacy; parameters: species or system mice; details: single-agent groups (I-263a 25 or 12.5 mg/kg; rituximab 10 mg/kg)
Description: PHTX-166L Study 5: PHTX-166L is a human patient-derived B-cell lymphoma primary xenograft. Small tumor pieces measuring approximately 2 mm×2 mm were implanted subcutaneousy on the right flank via trocar injection. When the mean tumor volume reached approximately 160 mm^3, the animals were randomized into treatment groups and control groups (n=7/group). Tumor growth inhibition and body weight change were calculated on Day 11 of treatment. Tumor volumes below the humane end-point for size were continually monitored following the end of treatment (post-treatment period) until Day 146 post treatment initiation.
Tumors were measured twice weekly using vernier calipers. Tumor volumes were calculated using standard procedures V=W^2×L/2, where V=volume, W=width, and L=length for the tumor xenograft. […] Tumor size and body weight were measured twice a week for the duration of the study. […]
as §1, §2

Cc1sc(C(=O)c2cncnc2N[C@@H]2C[C@H](COS(N)(=O)=O)[C@@H](O)C2)cc1[C@@H]1NCCc2ccc(Cl)cc21 [Compound I-263a, [(1R,2S,4R)-4-{[5-({4-[(1R)-7-chloro-1,2,3,4-tetrahydroisoquinolin-1-yl]-5-methyl-2-thienyl}carbonyl)pyrimidin-4-yl]amino}-2-hydroxycyclopentyl]methyl sulfamate]
Day by which all mice were euthanized due to large tumor volume or ulceration [1]: ≤ 14 days
Day by which all mice were euthanized due to large tumor volume or ulceration [2]: ≤ 21 days
